Read-outs that look alike come from different tables or passages of the source. Results are given in words; binding and its absence hold for the method and conditions named. In cells and extracts the contact can be indirect. A yes stands for co-enrichment or nearness to the bait. Other partners may have been found. For part of these data: No binding means not detected with the bait. Tags and fused reporters may be left off the sequences shown.
T1: BIN2-YFP-TbID (Arabidopsis) (UniProt Q39011)
T1 sequence: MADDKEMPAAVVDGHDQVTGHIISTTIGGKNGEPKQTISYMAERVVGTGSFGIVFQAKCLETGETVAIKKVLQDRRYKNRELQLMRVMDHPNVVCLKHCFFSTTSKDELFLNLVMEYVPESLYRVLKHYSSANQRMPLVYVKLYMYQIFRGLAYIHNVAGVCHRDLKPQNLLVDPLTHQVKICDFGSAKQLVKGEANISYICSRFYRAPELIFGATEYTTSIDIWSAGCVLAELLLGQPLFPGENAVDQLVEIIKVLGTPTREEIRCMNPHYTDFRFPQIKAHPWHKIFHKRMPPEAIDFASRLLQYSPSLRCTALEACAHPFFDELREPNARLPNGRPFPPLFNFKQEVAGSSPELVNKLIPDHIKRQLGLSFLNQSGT

Protein sequences, listed by entry. Tags and fused reporters are not part of them. Residues count along the entry.
UniProt Q9LX66, residues 25-830: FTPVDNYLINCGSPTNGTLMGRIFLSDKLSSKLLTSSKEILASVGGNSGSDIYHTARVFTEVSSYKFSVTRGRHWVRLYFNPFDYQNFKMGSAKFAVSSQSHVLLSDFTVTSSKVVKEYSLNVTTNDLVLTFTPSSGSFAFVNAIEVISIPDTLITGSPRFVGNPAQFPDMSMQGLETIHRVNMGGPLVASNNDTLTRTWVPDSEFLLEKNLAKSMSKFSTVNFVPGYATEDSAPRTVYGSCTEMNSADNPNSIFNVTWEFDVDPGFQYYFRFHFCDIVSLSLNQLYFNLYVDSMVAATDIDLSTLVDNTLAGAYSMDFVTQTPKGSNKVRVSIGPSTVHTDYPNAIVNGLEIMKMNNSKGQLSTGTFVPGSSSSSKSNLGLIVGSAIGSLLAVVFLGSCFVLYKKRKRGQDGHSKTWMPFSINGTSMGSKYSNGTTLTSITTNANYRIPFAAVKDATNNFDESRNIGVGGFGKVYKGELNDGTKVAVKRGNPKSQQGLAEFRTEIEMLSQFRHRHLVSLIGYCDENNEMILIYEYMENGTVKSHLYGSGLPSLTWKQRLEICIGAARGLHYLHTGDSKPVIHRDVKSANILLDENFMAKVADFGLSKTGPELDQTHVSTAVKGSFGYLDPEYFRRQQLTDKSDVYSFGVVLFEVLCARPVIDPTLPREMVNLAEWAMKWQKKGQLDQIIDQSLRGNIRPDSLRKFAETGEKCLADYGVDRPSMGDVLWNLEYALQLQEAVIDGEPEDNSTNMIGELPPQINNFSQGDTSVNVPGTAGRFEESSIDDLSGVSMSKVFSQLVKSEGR
UniProt Q8S307: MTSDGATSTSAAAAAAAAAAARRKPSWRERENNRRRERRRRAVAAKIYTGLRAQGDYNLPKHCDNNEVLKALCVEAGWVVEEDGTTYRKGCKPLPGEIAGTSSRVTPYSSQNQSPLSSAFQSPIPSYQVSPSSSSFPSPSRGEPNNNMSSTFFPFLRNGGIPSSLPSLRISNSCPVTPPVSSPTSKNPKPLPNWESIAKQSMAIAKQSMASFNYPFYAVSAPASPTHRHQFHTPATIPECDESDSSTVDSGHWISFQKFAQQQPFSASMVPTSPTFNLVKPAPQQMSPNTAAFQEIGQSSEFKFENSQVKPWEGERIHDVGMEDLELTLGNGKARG
UniProt Q8W4L3: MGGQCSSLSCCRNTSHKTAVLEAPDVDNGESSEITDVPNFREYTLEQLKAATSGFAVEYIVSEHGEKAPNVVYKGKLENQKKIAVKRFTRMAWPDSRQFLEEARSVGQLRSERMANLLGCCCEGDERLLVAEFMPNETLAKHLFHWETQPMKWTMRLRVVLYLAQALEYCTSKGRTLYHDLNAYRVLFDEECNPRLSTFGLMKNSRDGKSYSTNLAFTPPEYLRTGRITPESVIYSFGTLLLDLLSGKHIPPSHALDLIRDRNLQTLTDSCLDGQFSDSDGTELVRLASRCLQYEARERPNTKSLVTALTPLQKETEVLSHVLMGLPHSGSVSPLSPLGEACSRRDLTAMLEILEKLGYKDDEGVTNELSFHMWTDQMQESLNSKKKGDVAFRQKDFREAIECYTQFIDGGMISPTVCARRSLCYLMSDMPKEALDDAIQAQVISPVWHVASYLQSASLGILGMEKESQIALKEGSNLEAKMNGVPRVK

T2: PP2AB’α (ATB’-α)-YFP-TbID (Arabidopsis) (UniProt O04375)
T2 sequence: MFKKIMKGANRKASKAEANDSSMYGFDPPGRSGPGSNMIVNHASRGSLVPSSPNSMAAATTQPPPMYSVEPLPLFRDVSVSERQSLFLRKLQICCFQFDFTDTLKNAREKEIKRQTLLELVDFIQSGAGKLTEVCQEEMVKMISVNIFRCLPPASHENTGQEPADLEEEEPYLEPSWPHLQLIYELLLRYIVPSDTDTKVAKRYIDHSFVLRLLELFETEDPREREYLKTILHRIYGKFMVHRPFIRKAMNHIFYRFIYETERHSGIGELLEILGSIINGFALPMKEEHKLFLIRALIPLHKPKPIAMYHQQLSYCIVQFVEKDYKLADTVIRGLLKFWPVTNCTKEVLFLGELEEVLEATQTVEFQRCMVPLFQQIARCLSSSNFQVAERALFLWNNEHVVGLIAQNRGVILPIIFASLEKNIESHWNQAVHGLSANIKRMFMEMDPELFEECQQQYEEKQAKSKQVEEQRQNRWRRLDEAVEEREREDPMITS

T3: PP2AB’ε (ATB’-ε)-YFP-TbID (Arabidopsis) (UniProt Q9SV41)
T3 sequence: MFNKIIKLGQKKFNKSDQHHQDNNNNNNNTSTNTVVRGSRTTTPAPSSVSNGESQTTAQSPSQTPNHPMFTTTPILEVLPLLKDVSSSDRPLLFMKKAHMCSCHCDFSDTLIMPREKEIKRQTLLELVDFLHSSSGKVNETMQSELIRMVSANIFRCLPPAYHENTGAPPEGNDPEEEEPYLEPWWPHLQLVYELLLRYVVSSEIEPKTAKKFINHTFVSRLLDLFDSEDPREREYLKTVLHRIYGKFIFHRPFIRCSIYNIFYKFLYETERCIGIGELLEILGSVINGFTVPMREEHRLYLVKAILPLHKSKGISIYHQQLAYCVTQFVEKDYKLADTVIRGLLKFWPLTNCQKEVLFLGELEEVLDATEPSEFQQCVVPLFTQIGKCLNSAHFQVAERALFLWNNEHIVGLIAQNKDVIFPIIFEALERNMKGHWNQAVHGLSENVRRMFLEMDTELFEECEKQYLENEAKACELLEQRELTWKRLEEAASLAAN


Experiments:
Experiment in all cases: proximity labelling
[1] = target: T1, BIN2-YFP-TbID (Arabidopsis)
[2] = target: T2, PP2AB’α (ATB’-α)-YFP-TbID (Arabidopsis)
[3] = target: T3, PP2AB’ε (ATB’-ε)-YFP-TbID (Arabidopsis)
[4] = target: T1, BIN2-YFP-TbID (Arabidopsis); remark: listed apart in the source

binding [1]	binding [4]	Molecule	also measured
binds	–	receptor kinase HERK1 (from UniProt Q9LX66 25-830)	–
–	–	BZR1 fused with 4xMyc-6His tag (from UniProt Q8S307 1-336)	binding [2]: binds; binding [3]: no binding
binds	–	BSK3 (from UniProt Q8W4L3 1-489)	–
–	no binding	MLP34 (protein, UniProt Q9SSK7 1-316) MAKTEAPSLVGKLETEVEIKASAGQFHHMFAGKPHHVSKASPGNIQSCDLHEGDWGTVGSIVFWNYVHDGEAKVAKERIEAVEPEKNLITFRVIEGDLMKEYKSFLITIQVTPKHGGPGSIVHWHLEYEKISDEVAHPETLLQFCVEVSQEIDEHLLSEEEEVKTTETLETEVEIKASAEKFHHMFAGKPHHVSKATPGNIQSCDLHEGDWGTVGSIVFWNYVHDGEAKVAKERIEAVDPEKNLITFRVIEGDLMKEYKSFVITIQVTPKHGGSGSVVHWHFEYEKINEEVAHPETLLQFAVEVSKEIDEHLLAEE	–
–	binds	NONPHOTOTROPIC HYPOCOTYL3 (protein, UniProt Q9FMF5 1-746) MMWESESDGGVGVGGGGGREYGDGVLSSNKHGGVKTDGFELRGQSWFVATDIPSDLLVKIGDMNFHLHKYPLLSRSGKMNRLIYESRDPDPTILILDDLPGGPEAFELASKFCYGVPVDLTATNISGLRCAAEYLEMTEDLEEGNLIFKTEAFLSYVVLSSWRDSILVLKSCEKLSPWAENLQIVRRCSESIAWKACSNPKGIRWAYTGKAPSPSTTNFAGSSPRWNESKDSSFYCSPSRNTNSQPVPPDWWFEDVSILRIDHFVRVITAIKVKGMRFELLGAVIMHYAGKWLPGLIKEGGVAIAPAMSSAIGGGLGLGGDEMSISCGSNSSGGSSGPDWKGGLHMVLSAGKTNGHQDSVACLAGLGISPKDQRMIVESLISIIPPQKDSVTCSFLLRLLRAANMLKVAPALITELEKRVGMQFEQATLQDLLIPGYNNKGETMYDVDLVQRLLEHFLVQEQTEGSSPSRMSPSPSQSMYADIPRGNNNNGGGGGGNNQNAKMRVARLVDSYLTEVARDRNLPLTKFQVLAEALPESARTCDDGLYRAIDSYLKAHPTLSEHERKRLCRVMDCQKLSMDACMHAAQNERLPLRVVVQVLFSEQVKISNALANTSLKESTTLGEAMGTYQPMIPNRKTLIEATPQSFQEGWAAAKKDINTLKFELETVKTKYVELQNEMEVMQRQFEKTGKVKNTPSSSAWTSGWKKLSKLTKMSGQESHDISSGGEQAGVDHPPPRKPRRWRNSIS	–

— article doi:10.1101/636324
